Assay results as given in patent US20140271478A1 (University of California, published 2014).
No constants are given. Whether binding was seen depends on the method and setting. Some entries that bind do so weakly or less than the wild type. Blank lines part the entries; values can stand above or below the binder they belong to.

By UniProt entry, the sequences of proteins in these tests, tags left out. Where a name states a change or a piece, a line headed by the entry shows the natural chain unless it says otherwise.
UniProt P26012: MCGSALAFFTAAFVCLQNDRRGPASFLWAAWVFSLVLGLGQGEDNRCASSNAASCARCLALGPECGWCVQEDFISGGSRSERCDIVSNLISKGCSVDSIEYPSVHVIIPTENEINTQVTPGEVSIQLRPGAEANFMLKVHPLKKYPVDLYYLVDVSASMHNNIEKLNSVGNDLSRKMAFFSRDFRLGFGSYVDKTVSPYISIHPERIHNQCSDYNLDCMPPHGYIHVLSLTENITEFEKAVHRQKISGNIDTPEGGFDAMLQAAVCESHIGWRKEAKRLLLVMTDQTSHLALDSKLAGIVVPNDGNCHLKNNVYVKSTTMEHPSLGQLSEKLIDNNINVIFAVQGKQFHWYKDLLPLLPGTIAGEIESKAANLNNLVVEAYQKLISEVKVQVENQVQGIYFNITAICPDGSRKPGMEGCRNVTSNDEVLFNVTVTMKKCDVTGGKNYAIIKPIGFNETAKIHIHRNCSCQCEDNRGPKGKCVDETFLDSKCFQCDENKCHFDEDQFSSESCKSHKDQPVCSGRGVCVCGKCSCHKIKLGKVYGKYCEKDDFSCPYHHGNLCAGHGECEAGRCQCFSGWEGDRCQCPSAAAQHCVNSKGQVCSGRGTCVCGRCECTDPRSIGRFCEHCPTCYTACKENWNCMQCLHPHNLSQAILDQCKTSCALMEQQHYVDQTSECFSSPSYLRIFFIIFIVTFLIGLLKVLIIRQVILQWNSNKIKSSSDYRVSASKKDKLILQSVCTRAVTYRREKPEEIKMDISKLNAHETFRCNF
UniProt P06756: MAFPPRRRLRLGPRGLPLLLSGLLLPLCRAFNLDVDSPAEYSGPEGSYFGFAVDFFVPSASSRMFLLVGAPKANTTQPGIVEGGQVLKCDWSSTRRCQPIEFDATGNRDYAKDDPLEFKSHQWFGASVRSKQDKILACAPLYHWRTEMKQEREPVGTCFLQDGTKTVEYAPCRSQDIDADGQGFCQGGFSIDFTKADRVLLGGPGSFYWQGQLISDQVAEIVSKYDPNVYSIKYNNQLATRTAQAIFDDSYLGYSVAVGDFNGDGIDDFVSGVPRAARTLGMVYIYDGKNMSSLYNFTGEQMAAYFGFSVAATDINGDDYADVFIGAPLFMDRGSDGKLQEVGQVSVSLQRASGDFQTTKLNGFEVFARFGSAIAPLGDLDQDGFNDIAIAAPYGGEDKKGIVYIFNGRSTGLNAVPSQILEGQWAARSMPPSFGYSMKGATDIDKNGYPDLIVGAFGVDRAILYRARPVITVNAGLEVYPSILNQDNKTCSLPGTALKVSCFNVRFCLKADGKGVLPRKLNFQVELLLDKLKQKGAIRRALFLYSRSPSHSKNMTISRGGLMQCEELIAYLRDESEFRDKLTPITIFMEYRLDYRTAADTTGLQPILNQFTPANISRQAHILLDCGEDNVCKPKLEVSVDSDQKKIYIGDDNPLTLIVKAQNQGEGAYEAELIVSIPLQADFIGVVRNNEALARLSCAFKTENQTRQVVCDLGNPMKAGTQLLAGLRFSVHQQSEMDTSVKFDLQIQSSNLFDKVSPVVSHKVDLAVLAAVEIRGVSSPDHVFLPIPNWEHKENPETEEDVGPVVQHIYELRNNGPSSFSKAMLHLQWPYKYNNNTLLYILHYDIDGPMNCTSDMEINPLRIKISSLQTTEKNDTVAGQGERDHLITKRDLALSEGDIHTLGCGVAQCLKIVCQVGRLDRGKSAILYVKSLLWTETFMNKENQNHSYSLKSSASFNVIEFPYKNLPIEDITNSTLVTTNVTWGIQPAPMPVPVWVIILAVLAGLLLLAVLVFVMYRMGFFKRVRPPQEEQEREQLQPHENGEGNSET

Experiments:
[1] = biological target: human integrin β8 in tissue of ITGB8 BAC transgenic mice (human) (UniProt P26012); assay: immunostaining of formalin fixed paraffin embedded tissue
[2] = biological target: human integrin αβ8 (αvβ8) expressed on cells (human) (UniProt P06756); assay: immunostaining of formalin fixed cells
[3] = biological target: human integrin αβ8 (αvβ8) expressed on cells (human) (UniProt P06756); assay: immunostaining, 4F1 at 50-100 ug/ml
[4] = biological target: human integrin β8 in tissue of ITGB8 BAC transgenic mice (human) (UniProt P26012); assay: immunostaining, 4F1 at 50-100 ug/ml
[5] = biological target: human integrin αβ8 (αvβ8) expressed on cells (human) (UniProt P06756); assay: cell surface staining, flow cytometry
[6] = biological target: human integrin β8 in tissue of ITGB8 BAC transgenic mice (human) (UniProt P26012); assay: immunostaining of formalin fixed tissue
[7] = biological target: human integrin β8 in tissue of ITGB8 BAC transgenic mice (human) (UniProt P26012); assay: immunostaining of formalin fixed paraffin embedded mouse lung
[8] = biological target: human integrin αβ8 (αvβ8) expressed on cells (human) (UniProt P06756); assay: immunostaining of formalin fixed paraffin embedded human lung
[9] = biological target: human integrin β8 in tissue of ITGB8 BAC transgenic mice (human) (UniProt P26012); assay: immunostaining of formalin fixed paraffin embedded mouse brain
[10] = biological target: human integrin β8 in tissue of ITGB8 BAC transgenic mice (human) (UniProt P26012); assay: immunostaining, 6B9 at 25 ug/ml
[11] = biological target: secreted αβ8 (αvβ8) (UniProt P06756); assay: immunoprecipitation

- binding [1]: binds
- binding [2]: binds
- binding [3]: binds
- binding [4]: binds
- binding [5]: binds
- binding [6]: binds
B1: 4F1 antibody (antibody, V domains shown)
VH: QVQLQQSGAELVRPGTSVKVSCKASGYAFTNYLIEWVKQRPGQGLEWIGVINPGTGGTNYNKKFKVKATLTADKSSSTAYMQLGGLTFDDSAVYFCAREGNARTYYYAMDYWGQGTSVTVSS
VL: DIEMTQTPASLSASVGETVTITCRASENIYSYLVWYQQKQGKSPQVLVYNAKTLAEGVPSRFSGSGSGTQFSLKINSLQPEDFGSYYCQHHNGTPYTFGGGTKLEIKR
notes: Hybridoma antibody; also called hybridoma clone 4F1

- binding [1]: binds
- binding [7]: binds
- binding [8]: binds
B2: recombinant monoclonal rabbit IgG derived from the variable domains of clone 4F1 (antibody, V domains shown)
VH: QVQLQQSGAELVRPGTSVKVSCKASGYAFTNYLIEWVKQRPGQGLEWIGVINPGTGGTNYNKKFKVKATLTADKSSSTAYMQLGGLTFDDSAVYFCAREGNARTYYYAMDYWGQGTSVTVSS
VL: DIEMTQTPASLSASVGETVTITCRASENIYSYLVWYQQKQGKSPQVLVYNAKTLAEGVPSRFSGSGSGTQFSLKINSLQPEDFGSYYCQHHNGTPYTFGGGTKLEIKR

- binding [1]: binds
- binding [9]: binds
- binding [10]: binds
- binding [6]: binds
B3: 6B9 antibody (antibody, V domains shown)
VH: QVQLQQSGAELVRPGTSVKVSCKASGYAFTDYLIEWVKQRPGQGLEWIGVINPETGGTNYNAKFKGKATLTADKSSSSAYMQLSSLTSGDSAVYFCAREAGNYIYAMDYWGQGTSVTVSS
VL: DIQMTQSPASLSASVGETVTITCRASVNIYSYLVWYQQKQGKSPQLLVHNAKTLAEGVPSRFSGSGSGTQFSLKINSLQPEDFGSYYCQHHHGTPYTFGGGTKLEIKR
notes: Hybridoma antibody; also called hybridoma clone 6B9

- binding [11]: binds
B4: 11E8 antibody (antibody, V domains shown)
VH: EVQLQQSGPELMKTGASVKISCKATGYTFSSYWIEWVKQRPGHGLEWIGDILPGSGTTNYNEKFKGRATVTADRSSNTAYMQLSSLTYGDSAVYYCATWGWDTYWDQGTSVTVSS
VL: DIVMTQSPSSLSASLGDRVTISCSASQGISNYLNWYQQKPDGTVKLLIYYTSSLHSGVPSRFSGSGSGTDYSLTISNLEPEDIATYYCQQYSNLPYTFGGGTKLEIKR
notes: Mouse hybridoma antibody
